# Reference: PubChem BioAssay AID485298 (National Center for Advancing Translational Sciences (NCATS), 2010)
# Out of some 320,000 compounds screened, about 740 (0.23%) were called active. The inconclusive results got no clear call from the source; some entries with a clear call stand among them for comparison. The call rests on the fitted dose curve; in most records, active means well fitted activation curve with a large enough effect; inconclusive means small, poorly fitted or top-dose-only effect; inactive means no such curve, though single readings can be large or run the other way. Where the call is inconclusive, the potency comes from a doubtful curve fit.
# Experiment: qHTS Assay for Small Molecule Inhibitors of Mitochondrial Division or Activators of Mitochondrial Fusion; further: nearly all actives have a fitted effect of over 45% in size
# Details: S. cerevisiae fusion-defective mutant growth rescue, CellTiterGlo 48 h; series mostly up to 46.1 µM
# Summary of the method: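 S. cerevisiae fusion-defective temperature-sensitive mutants (e.g. fzo1-1, mgm1-5) grown 48 h at 37C in YPEG (ethanol/glycerol non-fermentable) medium with 23 nl compound per well; growth rescue read as CellTiterGlo luminescence.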
# Potency means the concentration at half of the fitted maximal effect.
row,SMILES,Potency
1,COC(=O)c1c(C)oc2ccc(N(C(C)=O)S(=O)(=O)c3ccccc3)cc12,"inconclusive: 20 µM [activator, single point]"
2,Cc1ccc(-c2csc3ncnc(SCC(=O)NCc4ccc5c(c4)OCO5)c23)cc1,inactive
3,O=C1C=C(c2cc(F)ccc2F)C[C@@H](c2ccc(Cl)cc2)C1,"inconclusive: 25.1 µM [activator, single point]"
4,CCN(CC(=O)Nc1cc(S(=O)(=O)N2CCOCC2)ccc1Cl)Cc1ccccc1,"inconclusive: 11.2 µM [activator, partial curve]"
5,CCC(=O)OCC(=O)Nc1cc([N+](=O)[O-])ccc1OC,"inconclusive: 11.2 µM [activator, partial curve]"
6,CCOC(=O)N1CCC(NC(=O)CS(=O)Cc2nc(-c3ccc(Cl)cc3)oc2C)CC1 (stereo not drawn),inactive
7,Cc1ccc2nc(Cl)c3nnnn3c2c1,inactive
8,O=C(N/N=C/c1ccc([N+](=O)[O-])cc1)c1cccs1,inactive
9,Cc1ccc(C(=O)c2oc3ccccc3c2N)cc1,"inconclusive: 15.8 µM [activator, single point]"
10,COc1ccc(N2CCN(c3nc(NC(C)(C)C)nc(N4CCCCC4)n3)CC2)cc1,"inconclusive: 10 µM [activator, single point]"
11,O=C(CSc1nnc2c(n1)[nH]c1ccccc12)Nc1ccc2c(c1)OCO2,inactive
12,O=C(Nc1ccccc1)Nc1cccc(Cl)c1Cl,"inconclusive: 22.4 µM [activator, single point]"
13,O=C(Nc1nc(-c2ccccn2)cs1)C1COc2ccccc2O1 (stereo not drawn),"inconclusive: 20 µM [activator, single point]"
14,N#Cc1cccc(NC(=O)Cn2cnc(S(=O)(=O)N3CCCCC3)c2)c1,"inconclusive: 3.16 µM [activator, partial curve]"
15,BrC(=C\c1ccccc1)/C=N/Nc1nc2ccccc2[nH]1,"inconclusive: 35.5 µM [activator, single point]"
16,COc1cc2ccccc2cc1C(=O)NC(=S)Nc1cccc(C(=O)O)c1C,"inconclusive: 5.62 µM [activator, single point]"
17,CC(C)(C)c1nnc(N/N=C/c2cc(Br)ccc2O)n(N)c1=O,inactive
18,Cc1ccc2c(c1)c1c3n2CCN(C(=O)Cn2c(-c4ccccc4)noc2=O)C3CCC1 (stereo not drawn),"inconclusive: 6.31 µM [activator, full curve, poor fit]"
19,CS(=O)(=O)N1CCCC(C(=O)Nc2ccc(F)cc2F)C1 (stereo not drawn),inactive
20,CCCCCCCC(=O)OCC(=O)[C@@]1(O)CC[C@H]2[C@@H]3CCC4=CC(=O)CC[C@]4(C)[C@H]3[C@@H](O)C[C@@]21C,"inconclusive: 3.55 µM [activator, partial curve]"
21,CCn1cnc2c1c(=O)n(Cc1cccc(Br)c1)c(=O)n2Cc1ccccc1,"inconclusive: 10 µM [activator, partial curve, poor fit]"
22,O=C1NC(=O)/C(=C\c2ccccc2OCc2ccccc2)S1,inactive
23,COc1ccc2sc(-c3ccc(N(C)C)cc3)c(C#CCO)c2c1,"inconclusive: 7.94 µM [activator, single point]"

row,SMILES,Potency
1,CC1=NN(C(N)=S)C(=O)C1N=Nc1ccc(Cl)cc1 (stereo not drawn),inactive
2,C=CCn1c(O)c(N=NC(=S)Nc2cccc(OC)c2)c2ccccc21,inactive
3,CCCNC(=O)CCc1c(C)nc2c(c(C)nn2-c2ccccc2)c1C,"inconclusive: 1 µM [activator, full curve, poor fit]"
4,COc1ccc(-c2csc(NC(=O)c3ccccc3NS(=O)(=O)c3ccc(C)cc3)n2)cc1,"inconclusive: 7.08 µM [activator, full curve, poor fit]"
5,CN(C(=O)C1CCC(CNS(=O)(=O)c2cccc3cccnc23)CC1)C1CCCCC1 (stereo not drawn),"inconclusive: 1.12 µM [activator, full curve]"
6,O=c1cc(C(F)(F)F)nc(SC/C=C/c2ccccc2)[nH]1,"inconclusive: 3.98 µM [activator, full curve, poor fit]"
7,CCOC(=O)c1nnn(-c2nonc2N)c1CSc1ccc(C)cc1,"inconclusive: 20 µM [activator, single point]"
8,COc1ccc(C2=CC3=C(Br)C(=O)C(C)(OC(=O)C4CCCC4)C(=O)C3=CO2)cc1 (stereo not drawn),inactive
9,Cn1ccc2ccc(C3=CC(=O)C[C@H](c4ccc(F)cc4)C3)cc21,"inconclusive: 25.1 µM [activator, single point]"
10,COc1ccc(/C=C/C(=O)N2CCN(S(=O)(=O)c3ccccc3)CC2)cc1OC,inactive
11,COc1ccc(-c2cn3cccnc3n2)cc1NC(=O)C(C)Oc1ccccc1 (stereo not drawn),"inconclusive: 8.91 µM [activator, partial curve]"
12,COc1cccc(C2=CC(=O)C[C@H](c3ccc(Cl)cc3)C2)c1OC,"inconclusive: 25.1 µM [activator, single point]"
13,CN1CCN(C(=O)c2ccc(C3SCC(=O)N3Cc3ccco3)cc2)CC1 (stereo not drawn),inactive
14,CC(C)(C)c1ccc(C(=O)Nc2ccccc2NC(=O)c2ccco2)cc1,"inconclusive: 15.8 µM [activator, partial curve]"
15,O=[N+]([O-])c1cccc(/C=C/c2ccncc2)c1,inactive
16,CN(Cc1ccccc1)c1nc(CN2CCOCC2)nc2scc(-c3ccccc3)c12,"inconclusive: 20 µM [activator, single point]"
17,COCCN1CCn2c(nc3cc(NC(=O)Cn4nc(C)c5ccccc5c4=O)ccc32)C1,"inconclusive: 5.62 µM [activator, single point]"
18,N/C(CS(=O)(=O)c1ccccc1)=N\OC(=O)c1ccc(F)cc1,inactive
19,O=C1N=C(N2CCN(c3ccccc3)CC2)S/C1=C\c1ccco1,"inconclusive: 2.24 µM [activator, partial curve, poor fit]"
20,Cc1ccc(C2=Nc3c(ccc4ccccc34)C(c3ccncc3)=NN2)cc1,"inconclusive: 22.4 µM [activator, single point]"
21,O=C(CSc1ccc(F)cc1)NCCc1ccc(Cl)cc1,"inconclusive: 35.5 µM [activator, single point]"
22,O=C(O)c1ccc2c(c1)C1C=CCC1C(c1cc3c(cc1Br)OCO3)N2 (stereo not drawn),active: 11.2 µM
23,O=C(O)CC/C(=C\c1ccc2c(c1)OCO2)c1nc2ccccc2s1,"inconclusive: 35.5 µM [activator, single point]"

# Molecules above that have four or more nitrogen atoms, in the order listed:
row,SMILES,Potency
7,Cc1ccc2nc(Cl)c3nnnn3c2c1,inactive
10,COc1ccc(N2CCN(c3nc(NC(C)(C)C)nc(N4CCCCC4)n3)CC2)cc1,"inconclusive: 10 µM [activator, single point]"
11,O=C(CSc1nnc2c(n1)[nH]c1ccccc12)Nc1ccc2c(c1)OCO2,inactive
14,N#Cc1cccc(NC(=O)Cn2cnc(S(=O)(=O)N3CCCCC3)c2)c1,"inconclusive: 3.16 µM [activator, partial curve]"
15,BrC(=C\c1ccccc1)/C=N/Nc1nc2ccccc2[nH]1,"inconclusive: 35.5 µM [activator, single point]"
17,CC(C)(C)c1nnc(N/N=C/c2cc(Br)ccc2O)n(N)c1=O,inactive
18,Cc1ccc2c(c1)c1c3n2CCN(C(=O)Cn2c(-c4ccccc4)noc2=O)C3CCC1 (stereo not drawn),"inconclusive: 6.31 µM [activator, full curve, poor fit]"
21,CCn1cnc2c1c(=O)n(Cc1cccc(Br)c1)c(=O)n2Cc1ccccc1,"inconclusive: 10 µM [activator, partial curve, poor fit]"
1,CC1=NN(C(N)=S)C(=O)C1N=Nc1ccc(Cl)cc1 (stereo not drawn),inactive
2,C=CCn1c(O)c(N=NC(=S)Nc2cccc(OC)c2)c2ccccc21,inactive
3,CCCNC(=O)CCc1c(C)nc2c(c(C)nn2-c2ccccc2)c1C,"inconclusive: 1 µM [activator, full curve, poor fit]"
7,CCOC(=O)c1nnn(-c2nonc2N)c1CSc1ccc(C)cc1,"inconclusive: 20 µM [activator, single point]"
11,COc1ccc(-c2cn3cccnc3n2)cc1NC(=O)C(C)Oc1ccccc1 (stereo not drawn),"inconclusive: 8.91 µM [activator, partial curve]"
16,CN(Cc1ccccc1)c1nc(CN2CCOCC2)nc2scc(-c3ccccc3)c12,"inconclusive: 20 µM [activator, single point]"
17,COCCN1CCn2c(nc3cc(NC(=O)Cn4nc(C)c5ccccc5c4=O)ccc32)C1,"inconclusive: 5.62 µM [activator, single point]"
20,Cc1ccc(C2=Nc3c(ccc4ccccc34)C(c3ccncc3)=NN2)cc1,"inconclusive: 22.4 µM [activator, single point]"

# Additional structures follow.

row,SMILES,Potency
1,CCOc1ccc(C2=CC(=O)C[C@H](c3ccc(OC)cc3)C2)cc1,"inconclusive: 31.6 µM [activator, single point]"
2,CCOC(=O)c1c(C)[nH]c(C(=O)COC(=O)C(C)Oc2ccc(Cl)cc2Cl)c1C (stereo not drawn),inactive
3,Cc1nn(-c2ccccc2)c2nc(-c3ccccc3)cc(C(=O)N3CCOCC3)c12,"inconclusive: 20 µM [activator, single point]"
4,Cc1[nH]nc(SCC(=O)N2CCCCC2)c1[N+](=O)[O-],inactive
5,COC(=O)CCCC(=O)N1CCC(n2nccc2NC(=O)CCOc2ccccc2)CC1,"inconclusive: 22.4 µM [activator, single point]"
6,O=C(c1ccc(Br)cc1)c1cn[nH]c1-c1ccccc1O,"inconclusive: 11.2 µM [activator, partial curve]"
7,Cc1ccccc1-n1c(C)cc(/C=N/NC(=O)c2ccncc2)c1C,inactive
8,Cc1[nH]c2c(C)cccc2c1CC(=O)O,"inconclusive: 11.2 µM [activator, partial curve]"
9,CCCCCOc1ccc(C2C(C(C)=O)=C(C)Nc3ncnn32)cc1OC (stereo not drawn),inactive
10,CC(C)C[C@H]1C(=O)N2CCC[C@H]2[C@]2(O)O[C@](NC(=O)[C@@H]3C=C4c5cccc6[nH]c(Br)c(c56)C[C@H]4N(C)C3)(C(C)C)C(=O)N12,"inconclusive: 14.6 µM [activator, single point]"
11,CCc1cc2c(=O)c(-c3ccc4c(c3)OCCO4)coc2cc1OS(C)(=O)=O,"inconclusive: 12.6 µM [activator, single point]"
12,COc1ccc(-n2sc3c(c2=S)-c2cc(OC)ccc2NC3(C)C)cc1,"inconclusive: 10 µM [activator, single point]"
13,CCN(c1ccccc1)S(=O)(=O)c1cc(C(=O)Nc2cccc(Cl)c2)ccc1F,"inconclusive: 11.2 µM [activator, partial curve]"
14,OCC1(Cc2ccc(F)cc2F)CCCN(Cc2ccc(Cl)cc2)C1 (stereo not drawn),inactive
15,Cc1ccc2c(CSc3nc4ccccc4c(=O)n3CCCO)cc(=O)oc2c1C,"inconclusive: 3.98 µM [activator, full curve]"
16,O=c1c2ccccc2oc2cc(-c3ccc(CN4CCOCC4)cc3)ccc12,"inconclusive: 17.8 µM [activator, single point]"
17,COCc1cc(=O)[nH]c(-c2ccc(C(F)(F)F)cc2)n1,"inconclusive: 4.47 µM [activator, single point]"
18,COc1ccc(OC)c(-c2csc(NC(=O)CSc3ccccc3)n2)c1,"inconclusive: 31.6 µM [activator, single point]"
19,CCCC(=O)N(CCN1CCOCC1)c1nc2c(C)cccc2s1,"inconclusive: 35.5 µM [activator, partial curve]"
20,COc1c(Br)cc(C(N)=O)cc1OCc1ccccc1,"inconclusive: 12.6 µM [activator, partial curve]"
21,O=[N+]([O-])c1ccc(NC(=S)NCc2ccncc2)cc1,"inconclusive: 35.5 µM [activator, single point]"
22,CCCCOc1ccc(-c2nc(=S)[nH][nH]2)cc1,"inconclusive: 17.8 µM [activator, single point]"

# Some of the entries above, reformatted:
row	SMILES	Potency
4	Cc1[nH]nc(SCC(=O)N2CCCCC2)c1[N+](=O)[O-]	inactive
5	COC(=O)CCCC(=O)N1CCC(n2nccc2NC(=O)CCOc2ccccc2)CC1	inconclusive: 22.4 µM [activator, single point]
